Results taken from PubChem BioAssay AID2685 (National Center for Advancing Translational Sciences (NCATS), 2010).
This is one part of the list. The main result of the screen is listed elsewhere. These columns were measured beside it and carry no call. Compounds called inactive in the main read-out are mostly missing here. Words in brackets tell the shape of the fitted curve; partial curves, single points and poor fits give uncertain potencies.

Experiment: qHTS Assay for Lipid Storage Modulators in Drosophila S3 Cells;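 for cell number change: cells counted by Cell Tracker Red CMTPX staining in the red channel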
Conditions: BODIPY lipid droplet fluorescence, 18-24 h; for cell number change: measured here: cell count max response, cells fed with added oleic acid
How it was run: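 Laser-scanning cytometry quantifies lipid droplet accumulation (500–530 nm total intensity; droplet/cell object ratio) in oleic acid-fed (400 uM added) Drosophila S3 cells treated with a concentration series. 20 uM Triacsin C defined 100% inhibition.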

[1] = measured here: cell number channel AC50, cells fed with added oleic acid
[2] = measured here: lipid fluorescence (Fed channel) AC50, cells fed with added oleic acid

Structure (SMILES) | cell number change [%] | AC50 [1] | AC50 [2]
Cc1cccc(NC2=C(NC(=O)c3ccccc3)C(=O)c3ccccc3C2=O)c1 | -55.4 | 18.4 µM [falling, single point] | 16.4 µM [falling, single point]
CN(C)CCCNC(=O)c1cc(Br)ccc1Cl | -125 | 29.1 µM [falling, partial curve] | 0.651 µM [falling, single point]
Cn1cnnc1SCC(=O)Nc1cccc(C(=O)O)c1 | -58.7 | 32.6 µM [falling, single point] | 25.9 µM [falling, partial curve]
O=C(Nc1cnn(C23CC4CC(CC(C4)C2)C3)c1)c1cc(-c2ccccc2)on1 | -14 | – | 0.00461 µM [rising, full curve, poor fit]
O=C(NCc1cc([N+](=O)[O-])ccc1O)c1cccc(NS(=O)(=O)c2ccccc2)c1 | 14.1 | – | 0.13 µM [falling, full curve, poor fit]
O=C(CN1C(=O)COc2ccccc21)N(Cc1cccnc1)Cc1cccc(F)c1 | 19.7 | – | 3.66 µM [rising, partial curve]
CCOC(=O)CCCCC(=O)c1[nH]c(=O)[nH]c1Cn1cnc2ccccc21 | 6.95 | – | 9.2 µM [rising, partial curve, poor fit]
CC(C)(C)c1csc(NC(=O)c2c(F)c(F)c(F)c(F)c2F)n1 | -17.1 | – | –
COc1ccc(S(=O)(=O)Nc2cc(C)ccc2OC)cc1C | – | 2.06 µM [rising, partial curve, poor fit] | 2.31 µM [rising, partial curve]
O=C(CCn1c(=O)c2ccccc2n(Cc2ccccc2)c1=O)NC1CCN(Cc2ccccc2)CC1 | -20.5 | – | 2.06 µM [falling, full curve, poor fit]
Cc1ccc(NC(=O)CNc2ccccc2N2CCCC2=O)cc1S(=O)(=O)N1CCCCC1 | 3.03 | – | –
O=C(NCc1ccccc1Cl)C1CCN(c2ncnc3c2nc2n3CCCCC2)CC1 | 94.1 | 13 µM [rising, partial curve] | 5.17 µM [rising, single point]
O=C(CNC(=O)C1(c2ccccc2)CC1)Nc1ccc(F)c(F)c1 | 3.96 | – | 0.651 µM [falling, single point]
COc1ccc2nc3cc(Cl)ccc3c(Nc3cc(CN4CCCC4)c(O)c(CN4CCCC4)c3)c2n1 | 4.42 | – | 0.0082 µM [falling, full curve, poor fit]
COc1ccc(CCNC(=O)CN2CCOc3ccccc32)cc1OC | 0.193 | – | 5.8 µM [rising, full curve, poor fit]
Cc1c(Cl)c([N+](=O)[O-])nn1CC(=O)NC(C)c1ccccc1 (centres undefined) | -1.93 | – | –
Nc1ccccc1-c1n[nH]c(=S)s1 | 14.1 | – | –
CC(=O)Nc1cccc(/C(C)=N/NC(N)=S)c1 | -8.53 | – | –
Cc1cccc(N2CCN(C(=O)c3ccc(CNc4c(N5CCC(C)CC5)c(=O)c4=O)cc3)CC2C)c1 (centres undefined) | 0.101 | – | 5.8 µM [falling, single point]
Cc1ccc(CC23CN4CCN(CC(C4)C2O)C3)c(C)c1 (centres undefined) | 3.25 | – | 0.184 µM [rising, full curve, poor fit]
Cc1ccc2nc(SCC(=O)N(C)C3CCS(=O)(=O)C3)[nH]c2c1 (centres undefined) | – | – | 20.6 µM [falling, partial curve]

A different layout for some results above.
Structure (SMILES),cell number change [%],AC50 [1],AC50 [2]
O=C(CNC(=O)C1(c2ccccc2)CC1)Nc1ccc(F)c(F)c1,3.96,–,"0.651 µM [falling, single point]"
COc1ccc2nc3cc(Cl)ccc3c(Nc3cc(CN4CCCC4)c(O)c(CN4CCCC4)c3)c2n1,4.42,–,"0.0082 µM [falling, full curve, poor fit]"

Later entries:

Structure (SMILES) | cell number change [%] | AC50 [1] | AC50 [2]
COc1ccc(S(=O)(=O)N2CCN(CC3CC=CCC3)CC2)cc1 (centres undefined) | -6.76 | – | 6.51 µM [rising, single point]
Cc1ccc(-c2nnn(CC(=O)N3CCN(c4ccccc4)CC3)n2)o1 | 18.3 | – | 2.59 µM [rising, single point]
CCOC(=O)N1CCC(Nc2ncnc3c2cnn3-c2ccc(Cl)cc2)CC1 | – | 0.00461 µM [rising, full curve, poor fit] | 0.00517 µM [rising, full curve, poor fit]
COc1ccc(NC(=O)c2cc(C(=O)Nc3ccc(OC)cc3OC)cc([N+](=O)[O-])c2)c(OC)c1 | -2.1 | – | –
Cc1ccc(N(C(=O)Cn2nnc(-c3ccc(C)o3)n2)C(C(=O)NC2CCCC2)c2ccncc2)cc1 (centres undefined) | -2.56 | – | –
O=C(CN1CCN(c2ccc(Cl)cc2)CC1)Nc1ccc(F)c(F)c1 | 90.4 | 29.1 µM [rising, single point] | 29.1 µM [rising, single point]
Cn1ncnc1SCc1cn2cccnc2n1 | 122 | 18.4 µM [rising, single point] | 29.1 µM [rising, single point]
CCOC(=O)C1CCN(c2c(NCCCN3CCCCC3)c(=O)c2=O)CC1 | -9.1 | – | 0.00517 µM [falling, full curve, poor fit]
COc1ccccc1C(=O)/C=C/c1ccc(N2CCCCC2)c([N+](=O)[O-])c1 | -60.2 | 18.4 µM [falling, partial curve] | 16.4 µM [falling, partial curve]
O=C(CN1CCN(c2ccccc2)CC1)Nc1ccc(OCc2ccccc2)cc1 | 25.7 | – | 2.06 µM [rising, partial curve]
CCOC(=O)C1(CCC(C)C)CC(CSc2nc3ccccc3[nH]2)OC1=O (centres undefined) | -20.8 | – | 13 µM [rising, partial curve]
CCOc1nc(-c2ccc(C)cc2)ccc1-c1noc(-c2cccnc2)n1 | 8.97 | – | 11.6 µM [rising, partial curve]
CCOC(=O)c1oc2ccc(S(=O)(=O)n3nc(-c4ccccc4)cc3N)cc2c1C | -50.4 | 20.6 µM [falling, single point] | 18.4 µM [falling, single point]
CCOC(=O)CSc1nc2cc(OCC)ccc2cc1C#N | -31.3 | 32.6 µM [falling, single point] | 6.51 µM [rising, single point]
Cc1ccc(C(=O)Nc2cccc(C(F)(F)F)c2)cc1NC(=O)c1cnnc2ccccc12 | -28.6 | – | –
O=C(COc1coc(CN2CCN(c3ccccc3)CC2)cc1=O)Nc1ccccc1 | -6.37 | – | 6.51 µM [rising, single point]
CCc1ccc(-c2cc(-c3n[nH]c(=S)n3CC)c3ccccc3n2)cc1 | 6.66 | – | 20.6 µM [rising, single point]
Cc1ccc(NS(=O)(=O)c2cc(Br)cnc2N)c(Cl)c1 | 1.53 | – | –
Cc1ccc2c(C(=O)CN3CC(C)CC(C)C3)c(C)[nH]c2c1 (centres undefined) | -11.7 | 0.00517 µM [falling, full curve, poor fit] | –
Cc1cc(C)c2c(=O)[nH]c(SCc3ccccc3)nc2n1 | -9.22 | – | –
CCC(CC)C1C(C#N)=C(N)Oc2n[nH]c(-c3ccccc3)c21 (centres undefined) | -42.3 | 2.91 µM [falling, partial curve] | –

Structure (SMILES) | cell number change [%] | AC50 [1] | AC50 [2]
Nc1nc(N)nc(-c2ccc(Oc3ccccc3)cc2)n1 | 99.7 | 20.6 µM [rising, single point] | –
Cc1cccn2cc(CCNS(=O)(=O)c3ccc([N+](=O)[O-])cc3)nc12 | -3.45 | – | 29.1 µM [rising, single point]
Cc1cc(C(=O)N2CCN(C(=O)c3ccco3)CC2)ccc1[N+](=O)[O-] | -36.5 | – | –
CCc1noc(C)c1C(=O)N1CCCC(N2CCN(c3ccccc3F)CC2)C1 (centres undefined) | 43.1 | – | 23.1 µM [rising, partial curve]
CC(OC(=O)c1c[nH]c2ccccc12)C(=O)N1CCCC1 (centres undefined) | 13.8 | – | –
Cc1ccc2oc(C(=O)N(Cc3ccccc3)C3CCS(=O)(=O)C3)c(C)c2c1 (centres undefined) | -12.7 | – | 29.1 µM [falling, single point]
CC1=C(C(N)=O)C(c2ccc(Cl)cc2Cl)n2ncnc2N1 (centres undefined) | – | 0.58 µM [rising, full curve, poor fit] | –
CCOC(=O)C1CCN(C(=O)c2cccnc2Cl)CC1 | -29.1 | – | –
CCc1ccc(/C=C2\C(=N)N3N=C(CC(=O)N4CCCCC4)SC3=NC2=O)cc1 | 20.8 | – | 0.146 µM [rising, single point]
Cc1ccc2[nH]c(=O)c(C(c3nnnn3Cc3ccccc3)N3CCc4ccccc43)cc2c1 (centres undefined) | – | 2.59 µM [rising, partial curve] | 2.06 µM [rising, partial curve]
COCC(C)NC(=O)c1nn(Cc2ccccc2)c(=O)c2ccccc12 (centres undefined) | 11.4 | – | –
COc1ccc(CCNC(=O)/C=C/c2ccco2)cc1 | 3.51 | – | –
CCN(CC)CCCN1C(=O)CSC1c1ccc([N+](=O)[O-])cc1 (centres undefined) | 0.125 | – | 20.6 µM [rising, single point]
O=C(COc1ccccc1[N+](=O)[O-])NCC1(N2CCCCC2)CCCCC1 | -6.12 | 0.0058 µM [falling, full curve, poor fit] | 3.66 µM [falling, single point]
CC(C)(C)C(=O)Nc1nnc(SCc2cccc(F)c2)s1 | -13.5 | – | –
COc1cccc(C(=O)N(Cc2cc3cc(C)ccc3[nH]c2=O)C(C)C)c1 | -7.34 | – | –
CCCCOC(=O)C1=C(C)Nc2ncnn2C1c1cccc(OC)c1OC (centres undefined) | – | 6.51 µM [rising, single point] | 3.26 µM [rising, single point]
O=C(COc1ncnc2ccccc12)N1CCN(C(=O)c2ccco2)CC1 | 2.66 | – | –
O=C(C[N+]1(CC#Cc2ccccc2)CCCCC1)c1ccc(Cl)cc1 | -4.64 | – | –
COC(=O)[C@H](Cc1ccccc1)N(C)S(=O)(=O)c1cccc(S(=O)(=O)N(C)[C@@H](Cc2ccccc2)C(=O)OC)c1 | 93.5 | 20.6 µM [rising, single point] | 29.1 µM [rising, single point]

Single values from the results shown.
For cell number change [%], O=C(COc1ccccc1[N+](=O)[O-])NCC1(N2CCCCC2)CCCCC1 shows -6.12
For AC50 [1], CC1=C(C(N)=O)C(c2ccc(Cl)cc2Cl)n2ncnc2N1 (centres undefined) shows 0.58 µM [rising, full curve, poor fit]
